Data on 42 molecules can be found in PubChem BioAssay AID662 (National Center for Advancing Translational Sciences (NCATS), 2007).

In general, AC50 refers to the midpoint of the concentration-response curve, whichever way the signal moves.

This is one part of the list. Shown are side measurements of this screen, not its main read-out; they come without a call. The list favours compounds with an active or inconclusive main result. Potencies come from curve fits of mixed quality, noted in brackets.

The experiment can be described thus: Cell signaling CRE-BLA (Fsk stim). To be noted: CHO CRE-bla reporter (cAMP response element driving beta-lactamase), forskolin EC10, beta-lactamase ratio; measured here: 460 nm blue channel. A digest of the protocol: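 CRE-bla CHO reporter cells treated with compound titration plus EC10 NKH 477 (water-soluble forskolin), incubated 3 h at 37 °C; CCF4 loading 2 h at room temperature, 460/530 nm emission ratio read, AC50 values derived for positive or negative modulators.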
On to `COc1cc(C(=O)OCC(=O)NCc2ccco2)cc(OC)c1OC`, for which the AC50 was 12.6 µM [rising, single point]. In the case of `O=C(CN1CCOCC1)Nc1ccc(-c2nc3ccccc3[nH]2)cc1` it was 0.794 µM [falling, full curve, poor fit]; in that of `Cc1ccc2[nH]c(=O)c(C(c3nnnn3C(C)(C)C)N(Cc3ccco3)CC3CCCO3)cc2c1` (configuration not stated), 3.16 µM [falling, single point].

With `COCc1cc(=O)[nH]c(/N=C(\N)Nc2ccc(C)cc2)n1`, the AC50 is 10 µM [rising, partial curve].

In the case of `COc1cccc(Oc2cn[nH]c2-c2ccc(OC)cc2O)c1`, the AC50 is 7.94 µM [falling, partial curve].

Consider `COc1ccc(CNc2nc3c(c(C(F)(F)F)n2)CCCCC3)cc1`, for which the concentration at half-maximal activity (AC50) is 0.316 µM [falling, partial curve]. In the case of `CCNS(=O)(=O)c1ccc(OCCNS(C)(=O)=O)cc1` it was 25.1 µM [rising, single point]. `O=C(O)CSC(NC(=O)c1cccnc1)(C(F)(F)F)C(F)(F)F`: the AC50 was 0.0398 µM [falling, full curve]. In the case of `CCOC(=O)c1c(C)[nH]c(C)c1C(=O)CSc1nnc(-c2ccco2)n1Cc1ccccc1` it was 12.6 µM [rising, partial curve]; in that of `CCCc1c(OCCCOc2ccc(OCC(=O)O)cc2)ccc(C(C)=O)c1O`, 5.01 µM [rising, partial curve]; in that of `Cc1ccc(S(=O)(=O)c2c(N)n(CC3CCOC3)c3nc4ccccc4nc23)cc1` (configuration not stated), 10 µM [rising, partial curve]. `c1ccc(N2CCN(c3nc4cc5c(cc4s3)OCCO5)CC2)cc1`: the AC50 was 25.1 µM [rising, single point]. In the case of `Cc1ccc(-n2nc(C)c3c(-c4cccs4)c(C#N)c(N)nc32)cc1` it was 10 µM [rising, partial curve]; in that of `Cc1cc(NC(=O)CSc2nc3c([nH]c4ccccc43)c(=O)n2-c2cccc(C(F)(F)F)c2)no1`, 1 µM [rising, full curve]; in that of `CCCn1c(C)nc2c(NC3CCCCC3)nc(C)nc21`, 12.6 µM [rising, partial curve].

Consider `Cc1cccc(C)c1NC(=O)C[N+](C)(C)C`, for which the half-maximal activity concentration (AC50) was 31.6 µM [falling, single point]. For `CCCOC(=O)CSc1nnc(-c2cc(OC)c(OC)c(OC)c2)o1` the value was 15.8 µM [rising, single point]; for `COc1ccc(S(=O)(=O)N2CCCCCC2)cc1C(=O)OCc1c(C)noc1C`, 10 µM [rising, partial curve]. In the case of `O=c1c2cc(Cl)ccc2[nH]c(=S)n1Cc1ccco1` it was 12.6 µM [rising, partial curve]; in that of `CCCC(=O)Nc1cc(C)c2c(=O)oc3ccccc3c2n1`, 12.6 µM [falling, single point]. In the case of `Cc1cc(C)c2c(c1)cc(C)c1nnc(SCC(=O)Nc3cc(C)on3)n12` it was 10 µM [rising, partial curve]. Consider `CC(C)OCCCn1c(-c2ccco2)nc2nc3ccccc3nc21`, for which the AC50 was 12.6 µM [rising, partial curve]. Turning to `O=C(NCc1ccc2c(c1)OCO2)c1cccc(S(=O)(=O)N2CCOCC2)c1`, the AC50 is 20 µM [rising, single point].

Turning to `CCCCC(c1nnnn1CS(=O)(=O)c1ccc(C)cc1)N1CCN(c2ccccc2)CC1` (configuration not stated), the AC50 is 12.6 µM [falling, partial curve]. With `N=c1c2c(-c3ccccc3)c(-c3ccccc3)oc2ncn1CCCN1CCOCC1`, the AC50 was 25.1 µM [rising, single point].

Consider `COc1ccc(-n2c(N)c(C(=O)NCC3CCCO3)c3nc4ccccc4nc32)c(OC)c1` (configuration not stated), for which the AC50 was 20 µM [rising, partial curve].

As to `O=C(CSc1ncc(-c2ccc(F)cc2)n1Cc1ccco1)Nc1nccs1`, the AC50 was 20 µM [rising, single point]. As to `CCN1CCC2(CC1)C(C#N)=C(N)Oc1c2sc2nc(C)cc(C)c12`, the AC50 is 5.01 µM [falling, single point]. In the case of `CN1CCN(c2nc(-c3ccncc3)nc3ccccc23)CC1` it was 0.00398 µM [falling, partial curve, poor fit]; in that of `CC1(C)CC(=O)C(C(c2ccncc2)C2C(=O)CC(C)(C)CC2=O)C(=O)C1`, 0.251 µM [falling, full curve, poor fit]; in that of `Cn1c(=O)[nH]c(=O)c2c1nc(CN1CCN(c3cccc(Cl)c3)CC1)n2CCCc1ccccc1`, 3.98 µM [rising, full curve]. As for `O=C(NCCCN1CCCC1=O)c1ccc2c(c1)NC(=O)C(N1CCOCC1)S2` (configuration not stated), the concentration at half-maximal activity (AC50) is 1.26 µM [falling, full curve, poor fit].

As to `COc1cc(C(=O)OCC(=O)c2cc(C)n(C)c2C)cc(NC(=O)c2ccco2)c1OC`, the half-maximal activity concentration (AC50) is 7.94 µM [rising, partial curve].

Regarding `COc1ccc2[nH]c3nc(SCc4nnc(-c5ccc(C)cc5)o4)nnc3c2c1`, the AC50 is 1 µM [rising, full curve]. For `Cc1ccc(CNC(=O)CN2CCN(Cc3ccc(C)cc3)C2=O)cc1` the value was 5.01 µM [falling, single point]; for `CCCS(=O)(=O)c1nnnn1-c1cccc(OC)c1`, 12.6 µM [falling, partial curve, poor fit]; for `CCC/C=C(\CCC)C(NC(=O)c1ccc(C(F)(F)F)cc1)c1ccc(C(F)(F)F)cc1` (configuration not stated), 0.316 µM [rising, full curve].

In the case of `CCOCCN1CCN(c2c(C)c(C)nc3cc(-c4cc(OC)cc(OC)c4)nn23)CC1`, the AC50 is 3.98 µM [rising, full curve]. In the case of `COCc1c(C(=O)OCC(=O)N2c3ccccc3CC2C)oc2ccccc12` (configuration not stated) it was 10 µM [rising, single point]; in that of `CCOC(=O)c1[nH]c(C)c(C(=O)c2cc(F)ccc2F)c1C`, 12.6 µM [rising, partial curve]. In the case of `COCCn1c(=O)c(-c2cccc(C#N)c2)nc2cnc(Oc3ccc(OC)cc3)nc21` it was 25.1 µM [rising, partial curve]; in that of `C=C[C@@](C)(O)CC[C@H]1[C@]2(C)CCCC(C)(C)[C@H]2CC[C@]1(C)O`, 0.398 µM [falling, full curve, poor fit].
